From paper PMC8895442 come the findings set out here.

Amino acid sequences for entries named in this document (tags omitted).
UniProt Q8IWZ3: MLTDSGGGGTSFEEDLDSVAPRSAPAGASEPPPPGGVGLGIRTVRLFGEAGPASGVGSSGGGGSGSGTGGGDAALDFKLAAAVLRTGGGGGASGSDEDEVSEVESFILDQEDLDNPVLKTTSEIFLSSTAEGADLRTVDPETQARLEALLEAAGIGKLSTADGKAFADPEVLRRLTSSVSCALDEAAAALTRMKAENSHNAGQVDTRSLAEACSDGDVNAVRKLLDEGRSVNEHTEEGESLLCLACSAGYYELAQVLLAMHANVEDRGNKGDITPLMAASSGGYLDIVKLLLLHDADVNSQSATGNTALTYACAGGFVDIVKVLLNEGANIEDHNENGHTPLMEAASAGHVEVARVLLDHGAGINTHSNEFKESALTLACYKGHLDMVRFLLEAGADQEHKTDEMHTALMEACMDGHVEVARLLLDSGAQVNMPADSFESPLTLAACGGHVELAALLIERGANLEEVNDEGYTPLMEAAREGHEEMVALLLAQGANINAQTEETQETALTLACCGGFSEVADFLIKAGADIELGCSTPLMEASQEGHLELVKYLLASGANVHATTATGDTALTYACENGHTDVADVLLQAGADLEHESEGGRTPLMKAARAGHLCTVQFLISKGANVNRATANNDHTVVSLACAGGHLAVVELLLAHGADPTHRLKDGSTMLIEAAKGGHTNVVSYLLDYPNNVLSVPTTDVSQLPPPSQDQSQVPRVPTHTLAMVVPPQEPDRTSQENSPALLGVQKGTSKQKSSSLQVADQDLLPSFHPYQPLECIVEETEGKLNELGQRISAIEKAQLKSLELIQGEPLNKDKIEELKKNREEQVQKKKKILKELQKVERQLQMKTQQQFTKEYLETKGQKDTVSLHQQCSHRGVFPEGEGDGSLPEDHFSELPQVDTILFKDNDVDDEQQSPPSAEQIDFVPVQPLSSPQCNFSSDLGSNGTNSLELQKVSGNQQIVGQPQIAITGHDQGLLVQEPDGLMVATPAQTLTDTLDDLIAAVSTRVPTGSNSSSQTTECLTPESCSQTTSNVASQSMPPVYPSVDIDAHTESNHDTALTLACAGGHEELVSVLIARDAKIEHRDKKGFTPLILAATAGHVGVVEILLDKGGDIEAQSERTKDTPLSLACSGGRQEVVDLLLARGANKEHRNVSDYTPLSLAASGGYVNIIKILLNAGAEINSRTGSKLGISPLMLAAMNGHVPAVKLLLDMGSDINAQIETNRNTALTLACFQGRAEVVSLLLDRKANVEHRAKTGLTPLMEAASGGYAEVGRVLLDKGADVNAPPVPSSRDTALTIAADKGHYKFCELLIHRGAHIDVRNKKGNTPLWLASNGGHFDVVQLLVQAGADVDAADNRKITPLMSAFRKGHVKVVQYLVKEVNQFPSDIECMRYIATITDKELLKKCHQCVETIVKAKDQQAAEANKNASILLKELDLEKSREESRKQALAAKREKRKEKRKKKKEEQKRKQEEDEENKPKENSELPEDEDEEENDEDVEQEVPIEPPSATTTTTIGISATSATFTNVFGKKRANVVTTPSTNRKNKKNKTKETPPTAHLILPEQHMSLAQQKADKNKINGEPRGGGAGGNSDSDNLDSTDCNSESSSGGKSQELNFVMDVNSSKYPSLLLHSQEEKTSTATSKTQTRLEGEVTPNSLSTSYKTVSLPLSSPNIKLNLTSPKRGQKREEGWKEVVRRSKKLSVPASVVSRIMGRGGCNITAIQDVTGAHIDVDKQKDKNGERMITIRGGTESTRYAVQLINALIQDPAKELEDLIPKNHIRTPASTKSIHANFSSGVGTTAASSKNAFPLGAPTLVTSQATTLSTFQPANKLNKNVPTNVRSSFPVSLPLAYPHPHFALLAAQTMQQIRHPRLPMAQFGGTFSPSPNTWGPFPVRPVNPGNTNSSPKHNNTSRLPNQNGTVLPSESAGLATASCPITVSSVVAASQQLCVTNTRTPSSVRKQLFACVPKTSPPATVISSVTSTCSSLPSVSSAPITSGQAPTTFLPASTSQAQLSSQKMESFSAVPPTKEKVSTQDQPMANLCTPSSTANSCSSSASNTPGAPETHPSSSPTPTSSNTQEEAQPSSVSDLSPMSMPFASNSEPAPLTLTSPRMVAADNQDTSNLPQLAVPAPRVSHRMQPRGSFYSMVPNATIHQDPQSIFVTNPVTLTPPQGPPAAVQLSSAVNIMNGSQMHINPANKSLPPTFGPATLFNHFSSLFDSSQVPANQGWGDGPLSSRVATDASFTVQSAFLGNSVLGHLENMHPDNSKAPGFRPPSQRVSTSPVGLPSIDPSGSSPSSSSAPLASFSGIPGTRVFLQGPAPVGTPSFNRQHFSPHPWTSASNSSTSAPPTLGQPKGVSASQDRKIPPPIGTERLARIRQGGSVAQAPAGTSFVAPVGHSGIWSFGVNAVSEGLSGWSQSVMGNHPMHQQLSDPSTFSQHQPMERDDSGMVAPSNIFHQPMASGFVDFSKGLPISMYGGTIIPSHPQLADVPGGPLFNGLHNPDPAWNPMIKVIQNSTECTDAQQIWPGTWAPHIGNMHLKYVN

No constants are given. Whether binding was seen depends on the method and setting. Binding seen in cells or lysates may run through a third protein. A yes stands for co-enrichment or nearness to the bait. Other partners may have been found.

In this experiment the target is Flag-PTEN (phosphatase and tensin homolog deleted on chromosome ten) (UniProt P60484). In words: affinity purification with mass spectrometry; 293T cells transfected with Flag-PTEN; PTEN immunoprecipitated with anti-PTEN antibody and protein A+G agarose at 4 °C; LC-MS/MS; IgG control; n = 1.

Turning to “ankyrin repeat and KH domain containing 1 (ANKHD1) (from UniProt Q8IWZ3 1-2542)”, the binding entry is “binds”.
